Laboratory results from PubChem BioAssay AID488789 (Broad Institute, 2010).
Inconclusive means that the source gave no clear call. Such entries were picked first, then a sample of the others. Activity calls are given as the source filed them.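 How the source made its calls: active means samples whose fitted half-maximal inhibition concentration is no more than ten times the top valid dose tested; inconclusive means flat response between -70 and -30, or invalid curve fit; inactive means flat within 30 of zero, potency above limit, or signal rising.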

Chains of the proteins cited; added tags and fusions are not shown.
UniProt P00761, whole entry, looked up: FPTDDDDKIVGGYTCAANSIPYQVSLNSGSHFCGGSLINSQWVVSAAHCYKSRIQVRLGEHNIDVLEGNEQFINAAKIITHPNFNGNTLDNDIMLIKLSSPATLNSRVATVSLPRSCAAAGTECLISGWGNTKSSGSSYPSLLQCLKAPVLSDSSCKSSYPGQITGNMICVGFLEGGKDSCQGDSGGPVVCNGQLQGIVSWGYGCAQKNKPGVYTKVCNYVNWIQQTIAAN

biological target: Trypsin (Sus scrofa) (UniProt P00761); test: porcine trypsin inhibitors, dose response, selectivity assay for Rce1 protease inhibitor project, biochemical, quenched peptide fluorescence, cherry-pick (AID 488789); conditions: quenched peptide cleavage fluorescence; at 10 µM (top of the series)

Row | SMILES | activity change, negative = inhibition
1 | O=S(=O)(c1ccc(-c2csc(Nc3ccc(F)cc3)n2)cc1)N1CCCC1 | inactive: -4.3%
2 | N#CC(/C(=N/S(=O)(=O)c1cccs1)c1ccccc1)c1nc2ccccc2[nH]1 (stereo unspecified) | inconclusive: -30.7%
3 | Cc1ccc(CNC(=O)c2cc(-c3ccccc3)nn2CC2CC(c3cccc([N+](=O)[O-])c3)=NO2)cc1 (stereo unspecified) | inconclusive: -31.3%
4 | Cc1c(CCC(=O)O)c(=O)oc2cc(OCc3cccc(F)c3)ccc12 | inconclusive: 95.8%
5 | CCc1nc(Nc2ccncc2)c2oc3ccccc3c2n1 | inconclusive: -37.6%
6 | NC(=O)[C@@H]1CC2(CC(c3cccc(NC(=O)CC(c4ccccc4)c4ccccc4)c3)=NO2)CN1C(=O)c1ccc(Cl)cc1 (stereo partly specified) | inactive: 9%
7 | C=CCn1c(SCc2ccc(C#N)cc2)nnc1-c1ccc(C)cc1 | inconclusive: 3.27%
8 | CCCCOc1ccc(Cc2c(COCC)[nH]c(=S)[nH]c2=O)cc1 | inactive: 5.62%
9 | CCCCNC(=O)c1cc2c(=O)n3cccc(C)c3nc2n(Cc2ccccc2)c1=N | inconclusive: 59.6%
10 | Oc1ccc(-c2nc3ccccn3c2NCc2ccc3c(c2)OCO3)cc1 | inconclusive: -74.7%
11 | O=C(Nc1cccc(-c2cn3ccccc3n2)c1)C1CC1 | inconclusive: -53%
12 | Cc1nc2c(C)cccn2c(=O)c1NC(=O)COc1ccccc1 | inconclusive: -74.4%
13 | CC1=C(C(=O)OCc2ccccc2)C(c2ccc(-c3ccccc3)cc2)NC(=O)N1CCCC(=O)O (stereo unspecified) | inconclusive: 5.74%
14 | CCOc1ccc(-n2ccnc(SCC(=O)NC3CCCC3)c2=O)cc1 | inconclusive: -15.3%
15 | CCOC(=O)c1[nH]c2ccc(OC)cc2c1NC(=O)CN1CCC2(CC1)OCCO2 | inconclusive: 3.27%
16 | CN(C)CCN(C(=O)c1ccc2ccccc2c1)c1nc2ccc(F)cc2s1 | inactive: 2.44%

Taken from above:
For activity change, negative = inhibition, `CCOc1ccc(-n2ccnc(SCC(=O)NC3CCCC3)c2=O)cc1` is entered as inconclusive: -15.3%
For activity change, negative = inhibition, `C=CCn1c(SCc2ccc(C#N)cc2)nnc1-c1ccc(C)cc1` is entered as inconclusive: 3.27%

The listing continues.

Row | SMILES | activity change, negative = inhibition
17 | c1ccc(C[n+]2cccc3c4ccccc4ccc32)cc1 | inconclusive: -9.53%
18 | COc1ccc(C(=O)/C=C/c2ccc(OC)cc2OC)c(O)c1 | inactive: 7.28%
19 | c1ccc(CNc2nc(N3CCN(Cc4ccccc4)CC3)nc3ccccc23)cc1 | inconclusive: 7.71%
20 | Cc1ccsc1/C=N/NC(=O)c1nnn(-c2nonc2N)c1C(C)C | inactive: 4.12%
21 | CCOC(=O)c1cc2c(=O)n3cccc(C)c3nc2n(CC(C)C)c1=NC(=O)c1ccco1 | inconclusive: -9.85%
22 | COC(C[C@@H]1O[C@@H]1C(=O)[C@@H](C)OCc1ccccc1)OC | inactive: -0.595%
23 | CCOC(=O)c1c(NC(=O)c2cccc(N3C(=O)CCC3=O)c2)sc(C)c1C | inconclusive: -4.18%
24 | COc1ccc(/C=N/NC(=O)c2[nH]c3ccc(C)cc3c2-c2ccccc2)c(C(=O)O)c1OC | inconclusive: 61.4%
25 | O=C(Nc1ccccc1-c1nc2ccccc2[nH]1)c1ccc(N2C(=O)CCC2=O)cc1 | inconclusive: 6.67%
26 | CCN(CC)CCNC(=O)c1[nH]c2ccc(OCc3ccccc3)cc2c1C | inactive: -5.39%
27 | COc1ccc(/C=C/c2nc3ccccc3n2C)cc1 | inconclusive: -31.9%
28 | COc1ccc(-c2nc3ncccc3o2)cc1NC(=O)c1ccco1 | inactive: 1.35%
29 | COc1ccc(-n2nc(C(=O)NCC(=O)N3CCC(C)CC3)c3ccccc3c2=O)cc1 | inactive: 3.6%
30 | CC(=O)C(C)Oc1ccc2c3c(c(=O)oc2c1)CCCC3 (stereo unspecified) | inconclusive: 7.78%
31 | COCc1cc(C)n(CC(=O)NCc2ccccc2)c(=O)c1C#N | inactive: 3.18%
